In article PMC3802552:
Substitutions are numbered along the chain they refer to. No constants are given. Whether binding was seen depends on the method and setting. Some entries that bind do so weakly or less than the wild type.

By UniProt entry, the sequences of proteins in these tests, tags left out.
UniProt O02482: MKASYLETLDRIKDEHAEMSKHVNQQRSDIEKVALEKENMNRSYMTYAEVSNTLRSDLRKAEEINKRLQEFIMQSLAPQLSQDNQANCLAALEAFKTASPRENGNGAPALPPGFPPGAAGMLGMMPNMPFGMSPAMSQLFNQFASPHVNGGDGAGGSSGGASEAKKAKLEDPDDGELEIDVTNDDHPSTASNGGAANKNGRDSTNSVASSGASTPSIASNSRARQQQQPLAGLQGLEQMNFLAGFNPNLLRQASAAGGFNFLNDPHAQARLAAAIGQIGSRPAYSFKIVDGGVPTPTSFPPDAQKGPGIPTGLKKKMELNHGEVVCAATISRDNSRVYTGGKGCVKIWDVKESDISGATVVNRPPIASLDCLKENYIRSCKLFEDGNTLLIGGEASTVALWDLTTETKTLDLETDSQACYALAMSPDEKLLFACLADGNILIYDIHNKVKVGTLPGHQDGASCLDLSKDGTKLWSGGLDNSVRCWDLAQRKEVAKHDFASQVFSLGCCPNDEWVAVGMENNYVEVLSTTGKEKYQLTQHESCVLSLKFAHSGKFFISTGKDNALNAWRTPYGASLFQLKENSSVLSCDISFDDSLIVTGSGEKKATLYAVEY

T1: TBX-2 (C. elegans T-box factor), wild type, two-hybrid bait (C. elegans) (UniProt Q19691)
T1 sequence: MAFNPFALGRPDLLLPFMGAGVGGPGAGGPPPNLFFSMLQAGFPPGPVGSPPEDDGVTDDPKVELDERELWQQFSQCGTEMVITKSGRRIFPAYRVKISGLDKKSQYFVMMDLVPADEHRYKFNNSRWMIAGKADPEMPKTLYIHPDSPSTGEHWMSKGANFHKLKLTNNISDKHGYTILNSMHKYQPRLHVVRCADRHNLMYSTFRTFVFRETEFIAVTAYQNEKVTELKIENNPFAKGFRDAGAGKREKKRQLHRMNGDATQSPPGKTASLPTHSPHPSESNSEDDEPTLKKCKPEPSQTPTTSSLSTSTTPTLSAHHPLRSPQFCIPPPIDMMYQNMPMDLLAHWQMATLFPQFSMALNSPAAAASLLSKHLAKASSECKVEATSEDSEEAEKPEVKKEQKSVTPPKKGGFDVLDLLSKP

T2: TBX-2^LKIE/VKKE→AAAA double mutant, two-hybrid bait (C. elegans) (UniProt Q19691)
T2 sequence: T1 sequence with L230A, K231A, I232A, E233A, V399A, K400A, K401A, E402A

T3: TBX-2^VKKE→AAAA, two-hybrid bait (C. elegans) (UniProt Q19691)
T3 sequence: T1 sequence with V399A, K400A, K401A, E402A

T4: TBX-2^LKIE→AAAA, two-hybrid bait (C. elegans) (UniProt Q19691)
T4 sequence: T1 sequence with L230A, K231A, I232A, E233A

B1: UBC-9 (E2 SUMO-conjugating enzyme), two-hybrid prey (enzyme, UniProt Q95017 1-166)
chain: MSGIAAGRLAEERKHWRKDHPFGFIAKPVKNADGTLNLFNWECAIPGRKDTIWEGGLYRIRMLFKDDFPSTPPKCKFEPPLFHPNVYPSGTVCLSLLDENKDWKPSISIKQLLIGIQDLLNHPNIEDPAQAEAYQIYCQNRAEYEKRVKKEAVKYAAELVQKQMLE

Experiments:
[1] = target: T1, TBX-2 (C. elegans T-box factor), wild type, two-hybrid bait (C. elegans); experiment: two-hybrid; yeast two-hybrid of wild-type and mutant TBX-2 with UNC-37 as a control for expression; further format not told (Supplementary Figure 1)
[2] = target: T2, TBX-2^LKIE/VKKE→AAAA double mutant, two-hybrid bait (C. elegans); experiment: as above
[3] = target: T3, TBX-2^VKKE→AAAA, two-hybrid bait (C. elegans); experiment: as above
[4] = target: T4, TBX-2^LKIE→AAAA, two-hybrid bait (C. elegans); experiment: as above
[5] = target: T1, TBX-2 (C. elegans T-box factor), wild type, two-hybrid bait (C. elegans); experiment: two-hybrid; L40 yeast with HIS3 and lacZ reporters regulated by LexA binding sites; TBX-2 baits in pLexA-NLS, UBC-9 prey in pACT; scored in plate assays for histidine prototrophy and ß-gal expression, level quantified by ß-gal activity (n = 7, three independent experiments)
[6] = target: T2, TBX-2^LKIE/VKKE→AAAA double mutant, two-hybrid bait (C. elegans); experiment: as above

Row | binding [1] | binding [2] | binding [3] | binding [4] | binding [5] | binding [6] | Molecule
1 | binds | binds | binds | binds | – | – | UNC-37 (Groucho-family co-repressor) (from UniProt O02482 1-612)
2 | – | – | – | – | binds | no binding | B1
